Some of these results come from one statement about several compounds together.
These compounds were tested on human Notch 1 (assay: Notch-CBF1 Transactivation Assay (Notch 1)). Conditions: HeLa cells co-transfected with truncated Notch 1 and CBF1 luciferase reporter; 18 hours incubation.
Format: cell-based
From the text: (§1) Notch-CBF1 Transactivation Assay
(§2) Table 12 denotes respective DNA quantity for the transfections.
(§3) Duplicates were used for each sample.

Q: For `NC(=O)[C@@H](CCC(F)(F)F)[C@@H](CCC(F)(F)F)C(=O)N[C@H]1CN(c2ccc(F)cc2)c2ccccc2NC1=O` [Example 6, (2R,3S)—N-((3S)-1-(4-Fluorophenyl)-4-oxo-2,3,4,5-tetrahydro-1H-1,5-benzodiazepin-3-yl)-2,3-bis(3,3,3-trifluoropropyl)succinamide], which IC50 is on record?
A: ≤ 22.5 nM

Q: With `N#Cc1cccc(N2C[C@H](NC(=O)[C@H](CCC(F)(F)F)[C@H](CC3CC3)C(N)=O)C(=O)Nc3c(Cl)cccc32)c1` [Example 25, (2R,3S)—N-((3S)-6-Chloro-1-(3-cyanophenyl)-4-oxo-2,3,4,5-tetrahydro-1H-1,5-benzodiazepin-3-yl)-3-(cyclopropylmethyl)-2-(3,3,3-trifluoropropyl)succinamide] as the compound, how does the IC50 read?
A: ≤ 22.5 nM

Q: How did the IC50 turn out when `N#Cc1cccc(N2C[C@H](NC(=O)[C@H](CCC(F)(F)F)[C@H](CCC(F)(F)F)C(N)=O)C(=O)Nc3c(Cl)cccc32)c1` [Example 23, (2R,3S)—N-((3S)-6-Chloro-1-(3-cyanophenyl)-4-oxo-2,3,4,5-tetrahydro-1H-1,5-benzodiazepin-3-yl)-2,3-bis(3,3,3-trifluoropropyl)succinamide] was run?
A: ≤ 22.5 nM

Q: For `N#Cc1ccccc1N1C[C@H](NC(=O)[C@H](CCC(F)(F)F)[C@H](CC2CC2)C(N)=O)C(=O)Nc2c(Cl)cccc21` [Example 26, (2R,3S)—N-((3S)-6-Chloro-1-(2-cyanophenyl)-4-oxo-2,3,4,5-tetrahydro-1H-1,5-benzodiazepin-3-yl)-3-(cyclopropylmethyl)-2-(3,3,3-trifluoropropyl)succinamide], which IC50 is on record?
A: ≤ 22.5 nM

Q: Which IC50 does the source give for `NC(=O)[C@@H](CCC(F)(F)F)[C@@H](CCC(F)(F)F)C(=O)N[C@H]1CN(c2ccc(Cl)cc2)c2ccccc2NC1=O` [Example 4, (2R,3S)—N-((3S)-1-(4-Chlorophenyl)-4-oxo-2,3,4,5-tetrahydro-1H-1,5-benzodiazepin-3-yl)-2,3-bis(3,3,3-trifluoropropyl)succinamide] here?
A: ≤ 22.5 nM

Q: `N#Cc1cccc(N2C[C@H](NC(=O)[C@H](CCC(F)(F)F)[C@H](CCC(F)(F)F)C(N)=O)C(=O)Nc3c(C(F)F)cccc32)c1` [Example 10, (2R,3S)—N-((3S)-1-(3-Cyanophenyl)-6-(difluoromethyl)-4-oxo-2,3,4,5-tetrahydro-1H-1,5-benzodiazepin-3-yl)-2,3-bis(3,3,3-trifluoropropyl)succinamide] was tested. Which IC50 did it give?
A: ≤ 22.5 nM

Q: `N#Cc1cccc(N2C[C@H](NC(=O)[C@H](CCC(F)(F)F)[C@H](CCC(F)(F)F)C(N)=O)C(=O)Nc3c(F)cccc32)c1` [Example 17, (2R,3S)—N-((3S)-1-(3-Cyanophenyl)-6-fluoro-4-oxo-2,3,4,5-tetrahydro-1H-1,5-benzodiazepin-3-yl)-2,3-bis(3,3,3-trifluoropropyl)succinamide] was tested. Which IC50 did it give?
A: ≤ 22.5 nM

What follows are compounds tested on human Notch 3 (assay: Notch-CBF1 Transactivation Assay (Notch 3)). Conditions: HeLa cells co-transfected with truncated Notch 3 and CBF1 luciferase reporter; 18 hours incubation.
Format: cell-based
From the text: as §1, §2, §3

Q: How did the IC50 turn out when `N#Cc1ccccc1N1C[C@H](NC(=O)[C@H](CCC(F)(F)F)[C@H](CC2CC2)C(N)=O)C(=O)Nc2c(Cl)cccc21` [Example 26, (2R,3S)—N-((3S)-6-Chloro-1-(2-cyanophenyl)-4-oxo-2,3,4,5-tetrahydro-1H-1,5-benzodiazepin-3-yl)-3-(cyclopropylmethyl)-2-(3,3,3-trifluoropropyl)succinamide] was run?
A: ≤ 46.2 nM
